These are yes or no findings as the source states them, for the method shown. Binding seen in cells or lysates may run through a third protein. Some binding calls cover weakened binding; strength is not graded here.

Chains of the proteins cited; added tags and fusions are not shown. Residues count along the entry.
UniProt Q9Y6N7, residues 26-1651: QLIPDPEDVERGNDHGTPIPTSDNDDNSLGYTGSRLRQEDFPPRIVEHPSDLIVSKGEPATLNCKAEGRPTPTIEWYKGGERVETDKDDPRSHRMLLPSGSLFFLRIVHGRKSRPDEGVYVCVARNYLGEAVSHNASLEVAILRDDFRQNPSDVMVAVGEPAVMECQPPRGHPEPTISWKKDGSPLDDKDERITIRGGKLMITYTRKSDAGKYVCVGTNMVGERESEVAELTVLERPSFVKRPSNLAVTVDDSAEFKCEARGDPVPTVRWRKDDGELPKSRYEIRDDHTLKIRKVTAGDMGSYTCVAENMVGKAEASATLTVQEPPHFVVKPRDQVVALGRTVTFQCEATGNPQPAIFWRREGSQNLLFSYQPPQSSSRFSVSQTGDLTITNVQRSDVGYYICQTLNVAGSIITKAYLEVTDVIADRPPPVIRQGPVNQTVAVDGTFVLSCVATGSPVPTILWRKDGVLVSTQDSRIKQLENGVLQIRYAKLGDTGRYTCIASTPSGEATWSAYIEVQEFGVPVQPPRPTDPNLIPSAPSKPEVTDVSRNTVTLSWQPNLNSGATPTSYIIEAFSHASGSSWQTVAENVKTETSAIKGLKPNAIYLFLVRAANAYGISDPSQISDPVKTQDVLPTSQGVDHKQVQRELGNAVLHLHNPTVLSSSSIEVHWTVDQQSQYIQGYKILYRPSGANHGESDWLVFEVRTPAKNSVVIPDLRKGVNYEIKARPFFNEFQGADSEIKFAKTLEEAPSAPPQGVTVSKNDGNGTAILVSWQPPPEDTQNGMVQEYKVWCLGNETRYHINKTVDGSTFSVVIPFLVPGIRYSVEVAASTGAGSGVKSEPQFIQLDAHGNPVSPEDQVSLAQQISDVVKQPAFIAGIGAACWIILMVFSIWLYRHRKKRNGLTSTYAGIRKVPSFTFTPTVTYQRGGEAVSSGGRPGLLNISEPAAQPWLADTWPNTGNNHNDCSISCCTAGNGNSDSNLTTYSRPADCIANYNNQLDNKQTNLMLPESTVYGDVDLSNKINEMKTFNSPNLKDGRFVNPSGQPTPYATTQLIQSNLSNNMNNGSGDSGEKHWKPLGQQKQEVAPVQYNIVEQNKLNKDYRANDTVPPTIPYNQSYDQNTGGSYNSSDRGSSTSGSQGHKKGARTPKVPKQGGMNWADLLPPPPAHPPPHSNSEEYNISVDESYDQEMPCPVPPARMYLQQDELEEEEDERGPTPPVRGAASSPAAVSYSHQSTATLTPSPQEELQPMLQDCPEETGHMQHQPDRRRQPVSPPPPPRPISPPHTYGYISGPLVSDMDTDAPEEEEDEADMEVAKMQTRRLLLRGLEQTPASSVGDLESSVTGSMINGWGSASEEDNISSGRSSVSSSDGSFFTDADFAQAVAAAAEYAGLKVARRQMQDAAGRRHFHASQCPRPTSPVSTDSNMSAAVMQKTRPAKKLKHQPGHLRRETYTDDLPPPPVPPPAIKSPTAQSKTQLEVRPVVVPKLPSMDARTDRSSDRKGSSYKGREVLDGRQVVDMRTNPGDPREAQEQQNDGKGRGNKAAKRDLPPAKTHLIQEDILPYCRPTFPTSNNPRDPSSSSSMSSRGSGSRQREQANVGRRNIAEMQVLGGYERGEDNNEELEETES
UniProt Q16539: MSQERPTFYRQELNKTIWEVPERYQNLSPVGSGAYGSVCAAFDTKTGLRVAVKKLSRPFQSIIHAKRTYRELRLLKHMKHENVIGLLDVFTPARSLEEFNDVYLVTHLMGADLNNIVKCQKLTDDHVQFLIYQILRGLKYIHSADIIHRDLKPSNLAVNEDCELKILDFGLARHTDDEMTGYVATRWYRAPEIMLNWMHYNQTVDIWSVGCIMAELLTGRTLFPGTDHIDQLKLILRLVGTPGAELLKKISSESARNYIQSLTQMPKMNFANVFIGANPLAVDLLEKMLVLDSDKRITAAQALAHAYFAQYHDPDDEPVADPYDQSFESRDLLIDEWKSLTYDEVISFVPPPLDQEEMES

In assay [1] the target is roundabout guidance receptor 1 (ROBO1), endogenous in PANC-1 cells (human (endogenous in PANC-1)) (UniProt Q9Y6N7). As to the kind of experiment: co-IP; endogenous proteins in PANC-1 lysate; anti-ROBO1, anti-p38α MAPK or anti-MEK3/6 antibodies on protein G Dynabeads; lysate mixed with beads at room temperature for 30-60 min; immunoblot.
The target of assay [2] is ROBO1-FL (full-length ROBO1 expressed in SW-1990 cells) (UniProt Q9Y6N7). The experiment in a line: co-IP; lysate of SW-1990 cells induced with 30 nM rSLIT2; anti-ROBO1 antibody on protein G Dynabeads; immunoblot. In general terms: In western blotting, separated proteins are transferred to a membrane and probed.

For “p38α MAPK (from UniProt Q16539 1-360) (enzyme)”, the binding result in assay [1] and in assay [2] was “binds” in each case.

B1: MEK3 (enzyme, UniProt P46734-2 1-318)
chain: MSKPPAPNPTPPRNLDSRTFITIGDRNFEVEADDLVTISELGRGAYGVVEKVRHAQSGTIMAVKRIRATVNSQEQKRLLMDLDINMRTVDCFYTVTFYGALFREGDVWICMELMDTSLDKFYRKVLDKNMTIPEDILGEIAVSIVRALEHLHSKLSVIHRDVKPSNVLINKEGHVKMCDFGISGYLVDSVAKTMDAGCKPYMAPERINPELNQKGYNVKSDVWSLGITMIEMAILRFPYESWGTPFQQLKQVVEEPSPQLPADRFSPEFVDFTAQCLRKNPAERMSYLELMEHPFFTLHKTKKTDIAAFVKEILGEDS
B1: in assay [1], the binding result was “binds”.

B2: MEK6 (enzyme, UniProt P52564-1 1-334)
chain: MSQSKGKKRNPGLKIPKEAFEQPQTSSTPPRDLDSKACISIGNQNFEVKADDLEPIMELGRGAYGVVEKMRHVPSGQIMAVKRIRATVNSQEQKRLLMDLDISMRTVDCPFTVTFYGALFREGDVWICMELMDTSLDKFYKQVIDKGQTIPEDILGKIAVSIVKALEHLHSKLSVIHRDVKPSNVLINALGQVKMCDFGISGYLVDSVAKTIDAGCKPYMAPERINPELNQKGYSVKSDIWSLGITMIELAILRFPYDSWGTPFQQLKQVVEEPSPQLPADKFSAEFVDFTSQCLKKNSKERPTYPELMQHPFFTLHESKGTDVASFVKLILGD
B2: the binding result in assay [1] is on record as “binds”.
